Results from the supplement of paper PMC12067093, “Discovery and optimisation of a covalent ligand for TRIM25 and its application to targeted protein ubiquitination” (Chemical Science, 2025).
The other results are listed elsewhere or left out.

Protein sequences, listed by entry. Tags and fused reporters are not part of them. Lines headed by an entry give the natural chain unless they say otherwise; changes in a name come on top.
UniProt Q5VU92: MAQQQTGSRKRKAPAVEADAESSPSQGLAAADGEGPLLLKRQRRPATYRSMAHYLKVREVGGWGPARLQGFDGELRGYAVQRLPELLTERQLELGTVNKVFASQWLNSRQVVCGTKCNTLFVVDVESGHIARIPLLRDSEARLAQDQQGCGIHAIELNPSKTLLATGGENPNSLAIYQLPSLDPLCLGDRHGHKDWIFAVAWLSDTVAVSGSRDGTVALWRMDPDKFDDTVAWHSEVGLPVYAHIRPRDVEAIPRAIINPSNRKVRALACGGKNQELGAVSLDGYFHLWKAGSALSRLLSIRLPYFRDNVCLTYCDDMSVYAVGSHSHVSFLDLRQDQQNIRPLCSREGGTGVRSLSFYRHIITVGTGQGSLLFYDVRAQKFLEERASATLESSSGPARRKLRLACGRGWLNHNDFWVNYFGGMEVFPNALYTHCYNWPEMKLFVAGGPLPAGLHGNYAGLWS
UniProt Q9UK59: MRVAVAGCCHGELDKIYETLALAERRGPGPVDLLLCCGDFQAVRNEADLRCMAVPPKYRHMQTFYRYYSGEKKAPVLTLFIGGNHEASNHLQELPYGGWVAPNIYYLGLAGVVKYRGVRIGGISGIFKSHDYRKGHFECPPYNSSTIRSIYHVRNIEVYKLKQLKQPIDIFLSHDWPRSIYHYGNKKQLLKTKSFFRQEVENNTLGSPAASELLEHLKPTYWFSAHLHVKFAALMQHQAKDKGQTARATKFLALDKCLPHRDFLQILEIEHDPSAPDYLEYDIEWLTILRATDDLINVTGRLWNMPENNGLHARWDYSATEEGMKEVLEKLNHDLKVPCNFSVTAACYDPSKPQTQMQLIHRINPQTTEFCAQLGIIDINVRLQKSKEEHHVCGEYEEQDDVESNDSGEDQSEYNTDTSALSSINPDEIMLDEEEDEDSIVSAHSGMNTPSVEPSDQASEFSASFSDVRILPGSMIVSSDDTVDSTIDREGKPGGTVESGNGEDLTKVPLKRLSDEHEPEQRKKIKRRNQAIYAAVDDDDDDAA
UniProt P07339: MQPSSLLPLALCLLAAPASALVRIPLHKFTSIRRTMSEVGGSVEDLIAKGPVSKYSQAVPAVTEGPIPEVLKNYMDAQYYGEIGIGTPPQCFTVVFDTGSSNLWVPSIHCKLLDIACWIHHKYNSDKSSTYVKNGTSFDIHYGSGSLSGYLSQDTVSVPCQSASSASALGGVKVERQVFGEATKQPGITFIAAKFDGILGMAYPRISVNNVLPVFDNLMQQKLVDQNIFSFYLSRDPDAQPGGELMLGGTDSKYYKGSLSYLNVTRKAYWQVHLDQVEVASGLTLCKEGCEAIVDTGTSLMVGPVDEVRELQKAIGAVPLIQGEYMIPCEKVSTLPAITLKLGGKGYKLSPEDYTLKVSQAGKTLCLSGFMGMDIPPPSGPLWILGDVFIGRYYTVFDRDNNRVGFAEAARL
UniProt Q5TAQ9: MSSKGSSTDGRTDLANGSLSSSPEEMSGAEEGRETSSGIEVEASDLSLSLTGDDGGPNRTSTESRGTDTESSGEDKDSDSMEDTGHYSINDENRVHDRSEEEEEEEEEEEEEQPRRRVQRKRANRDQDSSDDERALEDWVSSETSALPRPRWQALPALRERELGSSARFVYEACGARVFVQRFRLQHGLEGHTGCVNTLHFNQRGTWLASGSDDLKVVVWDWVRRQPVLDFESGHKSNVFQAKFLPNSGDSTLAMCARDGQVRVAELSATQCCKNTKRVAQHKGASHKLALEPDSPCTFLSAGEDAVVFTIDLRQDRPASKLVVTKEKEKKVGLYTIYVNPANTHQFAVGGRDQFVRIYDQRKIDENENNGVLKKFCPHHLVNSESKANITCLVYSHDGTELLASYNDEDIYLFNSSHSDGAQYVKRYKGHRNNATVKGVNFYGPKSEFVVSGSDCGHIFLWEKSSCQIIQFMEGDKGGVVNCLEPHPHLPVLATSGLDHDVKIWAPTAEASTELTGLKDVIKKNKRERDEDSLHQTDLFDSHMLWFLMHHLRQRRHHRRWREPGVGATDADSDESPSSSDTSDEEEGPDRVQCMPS
UniProt Q9NPI6: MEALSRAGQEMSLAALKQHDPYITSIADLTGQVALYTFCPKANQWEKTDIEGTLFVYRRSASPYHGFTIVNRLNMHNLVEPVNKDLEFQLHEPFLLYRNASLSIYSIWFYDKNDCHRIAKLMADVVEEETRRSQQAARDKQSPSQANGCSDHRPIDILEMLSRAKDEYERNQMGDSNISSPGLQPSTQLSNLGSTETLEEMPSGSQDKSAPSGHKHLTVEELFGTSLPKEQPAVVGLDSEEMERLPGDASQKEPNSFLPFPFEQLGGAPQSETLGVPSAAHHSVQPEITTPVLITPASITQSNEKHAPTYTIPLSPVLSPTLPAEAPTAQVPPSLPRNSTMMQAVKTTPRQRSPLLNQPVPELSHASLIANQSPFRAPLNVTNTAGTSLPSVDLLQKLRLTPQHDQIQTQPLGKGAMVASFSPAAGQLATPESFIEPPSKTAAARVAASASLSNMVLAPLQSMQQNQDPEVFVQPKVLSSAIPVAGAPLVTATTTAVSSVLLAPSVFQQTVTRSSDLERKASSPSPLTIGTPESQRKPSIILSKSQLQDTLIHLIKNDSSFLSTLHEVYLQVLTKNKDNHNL
UniProt Q15438: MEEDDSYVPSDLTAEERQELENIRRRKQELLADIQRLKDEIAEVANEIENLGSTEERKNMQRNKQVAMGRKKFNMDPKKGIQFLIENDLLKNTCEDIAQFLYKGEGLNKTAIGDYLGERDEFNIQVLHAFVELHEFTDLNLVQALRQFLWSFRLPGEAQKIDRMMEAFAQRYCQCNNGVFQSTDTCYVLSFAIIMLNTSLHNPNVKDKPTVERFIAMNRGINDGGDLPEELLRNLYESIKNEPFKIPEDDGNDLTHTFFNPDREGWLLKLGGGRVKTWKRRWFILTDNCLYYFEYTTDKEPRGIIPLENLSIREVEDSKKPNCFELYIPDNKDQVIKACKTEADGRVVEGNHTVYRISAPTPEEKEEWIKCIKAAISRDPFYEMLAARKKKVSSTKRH
UniProt Q14203, whole entry, looked up: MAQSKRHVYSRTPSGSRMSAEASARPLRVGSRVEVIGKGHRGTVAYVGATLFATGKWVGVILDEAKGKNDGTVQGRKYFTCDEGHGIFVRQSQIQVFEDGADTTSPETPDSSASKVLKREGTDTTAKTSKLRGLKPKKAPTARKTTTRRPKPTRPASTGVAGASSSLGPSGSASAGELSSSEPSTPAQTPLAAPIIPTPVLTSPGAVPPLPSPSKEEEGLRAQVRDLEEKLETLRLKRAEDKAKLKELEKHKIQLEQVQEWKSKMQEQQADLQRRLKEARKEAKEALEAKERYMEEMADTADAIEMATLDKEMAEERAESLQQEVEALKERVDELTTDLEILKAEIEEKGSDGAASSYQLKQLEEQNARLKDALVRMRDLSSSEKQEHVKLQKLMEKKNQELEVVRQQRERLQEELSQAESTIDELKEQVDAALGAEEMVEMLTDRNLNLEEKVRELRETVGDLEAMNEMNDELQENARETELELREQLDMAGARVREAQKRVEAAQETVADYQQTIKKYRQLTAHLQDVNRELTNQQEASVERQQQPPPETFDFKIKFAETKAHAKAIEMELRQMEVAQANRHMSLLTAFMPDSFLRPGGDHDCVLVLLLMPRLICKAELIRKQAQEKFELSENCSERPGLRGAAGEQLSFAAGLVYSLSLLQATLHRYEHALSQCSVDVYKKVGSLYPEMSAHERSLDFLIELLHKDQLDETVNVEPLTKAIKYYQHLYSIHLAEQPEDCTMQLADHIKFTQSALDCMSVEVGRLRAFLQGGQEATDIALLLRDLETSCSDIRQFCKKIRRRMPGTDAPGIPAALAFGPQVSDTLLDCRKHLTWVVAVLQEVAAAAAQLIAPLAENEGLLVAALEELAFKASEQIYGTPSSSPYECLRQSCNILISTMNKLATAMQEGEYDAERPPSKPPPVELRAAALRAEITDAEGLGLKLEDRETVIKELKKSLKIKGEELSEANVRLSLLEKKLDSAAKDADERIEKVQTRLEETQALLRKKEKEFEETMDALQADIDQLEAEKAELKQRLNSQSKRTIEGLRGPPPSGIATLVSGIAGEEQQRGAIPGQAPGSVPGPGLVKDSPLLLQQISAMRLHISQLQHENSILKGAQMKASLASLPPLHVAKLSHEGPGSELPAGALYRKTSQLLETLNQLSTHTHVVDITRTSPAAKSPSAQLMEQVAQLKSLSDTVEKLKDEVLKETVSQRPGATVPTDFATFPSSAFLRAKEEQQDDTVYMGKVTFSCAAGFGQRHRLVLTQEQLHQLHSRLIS
UniProt P53634: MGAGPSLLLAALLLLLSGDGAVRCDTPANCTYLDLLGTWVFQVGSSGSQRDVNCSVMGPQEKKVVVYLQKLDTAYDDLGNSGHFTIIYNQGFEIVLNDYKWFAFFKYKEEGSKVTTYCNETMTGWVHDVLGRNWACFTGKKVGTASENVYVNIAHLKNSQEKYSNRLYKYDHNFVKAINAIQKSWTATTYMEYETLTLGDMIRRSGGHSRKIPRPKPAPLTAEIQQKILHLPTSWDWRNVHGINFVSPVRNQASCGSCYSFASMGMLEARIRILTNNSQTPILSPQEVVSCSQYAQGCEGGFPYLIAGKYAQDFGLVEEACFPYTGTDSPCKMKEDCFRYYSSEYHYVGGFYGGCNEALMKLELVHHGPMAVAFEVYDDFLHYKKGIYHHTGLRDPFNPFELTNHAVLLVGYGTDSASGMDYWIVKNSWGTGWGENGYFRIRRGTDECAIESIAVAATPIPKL
UniProt Q6PI48: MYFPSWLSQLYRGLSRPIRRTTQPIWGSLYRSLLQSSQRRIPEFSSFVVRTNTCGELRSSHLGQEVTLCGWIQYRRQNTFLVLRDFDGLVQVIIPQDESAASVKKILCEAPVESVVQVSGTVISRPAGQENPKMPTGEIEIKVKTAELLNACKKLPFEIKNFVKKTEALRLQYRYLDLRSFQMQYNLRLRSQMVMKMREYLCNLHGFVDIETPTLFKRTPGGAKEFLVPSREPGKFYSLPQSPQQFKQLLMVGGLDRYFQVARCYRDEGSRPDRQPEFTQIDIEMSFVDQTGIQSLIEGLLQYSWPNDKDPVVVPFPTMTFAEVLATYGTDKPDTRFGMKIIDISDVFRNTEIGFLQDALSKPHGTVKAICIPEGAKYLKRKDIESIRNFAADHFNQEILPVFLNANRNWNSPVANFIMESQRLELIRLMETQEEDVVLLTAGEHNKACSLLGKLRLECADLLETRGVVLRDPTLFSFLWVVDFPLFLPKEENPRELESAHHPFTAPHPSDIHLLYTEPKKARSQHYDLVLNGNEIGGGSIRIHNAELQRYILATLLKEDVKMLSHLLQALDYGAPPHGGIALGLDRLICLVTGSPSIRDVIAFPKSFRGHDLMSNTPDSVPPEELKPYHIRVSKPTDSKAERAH
UniProt Q69YN2: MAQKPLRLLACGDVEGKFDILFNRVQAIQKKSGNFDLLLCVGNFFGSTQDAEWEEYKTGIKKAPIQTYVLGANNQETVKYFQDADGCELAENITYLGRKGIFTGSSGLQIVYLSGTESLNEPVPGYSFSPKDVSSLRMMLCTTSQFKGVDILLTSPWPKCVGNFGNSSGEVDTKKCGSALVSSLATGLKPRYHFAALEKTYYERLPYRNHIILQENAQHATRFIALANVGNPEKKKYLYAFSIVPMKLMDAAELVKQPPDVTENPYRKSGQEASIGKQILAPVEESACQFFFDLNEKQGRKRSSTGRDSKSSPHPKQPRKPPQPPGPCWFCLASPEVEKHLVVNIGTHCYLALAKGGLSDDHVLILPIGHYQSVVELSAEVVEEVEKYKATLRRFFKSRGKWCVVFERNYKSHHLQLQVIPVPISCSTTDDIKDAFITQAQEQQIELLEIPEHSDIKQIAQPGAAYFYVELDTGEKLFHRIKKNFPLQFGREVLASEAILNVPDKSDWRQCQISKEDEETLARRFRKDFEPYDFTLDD
UniProt P32321: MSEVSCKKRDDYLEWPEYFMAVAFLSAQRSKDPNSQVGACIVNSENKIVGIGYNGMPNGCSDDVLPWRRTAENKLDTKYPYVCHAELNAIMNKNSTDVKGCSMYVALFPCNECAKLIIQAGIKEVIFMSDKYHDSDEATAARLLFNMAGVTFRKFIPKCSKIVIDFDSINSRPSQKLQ
UniProt Q9UJU6: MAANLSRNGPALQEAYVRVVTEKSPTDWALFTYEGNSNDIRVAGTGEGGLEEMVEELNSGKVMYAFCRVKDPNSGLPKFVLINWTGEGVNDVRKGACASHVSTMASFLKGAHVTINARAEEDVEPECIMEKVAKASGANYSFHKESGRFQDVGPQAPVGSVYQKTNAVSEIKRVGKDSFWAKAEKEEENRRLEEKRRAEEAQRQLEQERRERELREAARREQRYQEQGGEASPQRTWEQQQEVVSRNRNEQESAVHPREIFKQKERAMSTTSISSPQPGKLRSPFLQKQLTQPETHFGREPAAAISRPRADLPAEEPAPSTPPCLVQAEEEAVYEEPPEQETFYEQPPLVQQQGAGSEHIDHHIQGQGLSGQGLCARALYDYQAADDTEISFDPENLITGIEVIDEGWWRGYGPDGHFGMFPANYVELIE

Compound: CC1Cc2ccccc2N1C(=O)C1CCCN(C1)C(=O)CCl (mixture of isomers) [TRIM25 ligand 11 (diastereomer mixture)]
Test: probe-labelled cysteine peptide fold change vs DMSO (competition) (log2 fold change); higher = less target engagement (more negative = stronger competition)
Conditions: THP-1, incubation time: 4 h
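Also: competitive chemoproteomic profiling in live THP-1 cells with an iodoacetamide desthiobiotin (IA-DTB) probe, comparing probe-labelled peptide intensities in compound-treated cells against DMSO-treated controls.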

Row | Target | probe-labelled cysteine peptide fold change (10 µM) | probe-labelled cysteine peptide fold change (50 µM)
1 | DCAF12L1_Q5VU92_150_LAQDQQGCGIHAIELNPSK (UniProt Q5VU92) | 0.0184 | -0.0204
2 | CTSB_P07858_108_EIRDQGSCGSCWAFGAVEAISDR (UniProt P07858) | -0.192 | -0.175
3 | DBR1_Q9UK59_36_RGPGPVDLLLCCGDFQAVR (UniProt Q9UK59) | -0.0277 | 0.219
4 | DARS_P14868_349_LEYCEALAMLR (UniProt P14868) | 0.117 | 0.0939
5 | CUX1_P39880-9_375_CAELQVR (UniProt P39880) | 0.164 | 0.049
6 | CYB5R3_P00387_274+284_DHLPPPEEEPLVLMCGPPPMIQYACLPNLDHVGHPTER (UniProt P00387) | 0.161 | 0.0132
7 | CTSD_P07339_286_AYWQVHLDQVEVASGLTLCK (UniProt P07339) | 0.06 | -0.0729
8 | CUL7_Q14999_1405_HSWPVASICHTLNPR (UniProt Q14999) | -0.0956 | 0.0337
9 | CUL9_Q8IWT3_176_ETGALDLLMHMLCNPEPQIR (UniProt Q8IWT3) | 0.0269 | -0.195
10 | CTPS2_Q9NRF8_313_DCYASVFK (UniProt Q9NRF8) | 0.228 | 0.122
11 | CYB5R3_P00387_284_DHLPPPEEEPLVLMCGPPPMIQYACLPNLDHVGHPTER (UniProt P00387) | 0.0327 | -0.15
12 | CUL9_Q8IWT3_1725_CLPTEFCDALDR (UniProt Q8IWT3) | -0.00954 | 0.182
13 | DAZAP1_Q96EP5_63_FKDPNCVGTVLASRPHTLDGR (UniProt Q96EP5) | 0.0212 | 0.0487
14 | DCP2_Q8IU60_391_KLQDNFETDAVYDLPSSSEDQLLEHAEGQPVACNGHCK (UniProt Q8IU60) | -0.209 | -0.464
15 | CUL4A_Q13619_241_FLEETNCLYAAEGQR (UniProt Q13619) | 0.0925 | -0.059
16 | DCAF1_Q9Y4B6_1070_YGGVDGGCFDR (UniProt Q9Y4B6) | -0.134 | -0.244
17 | CTSD_P07339_329_AIGAVPLIQGEYMIPCEK (UniProt P07339) | -0.137 | -0.296

Row | Target | probe-labelled cysteine peptide fold change (10 µM) | probe-labelled cysteine peptide fold change (50 µM)
18 | CUL2_Q13617_282_MVADHLQFLHAECHNIIR (UniProt Q13617) | -0.0719 | -0.0219
19 | CYFIP1_Q7L576_1088_LCCGLSMFEVILTR (UniProt Q7L576) | 0.0906 | 0.0519
20 | DCAF8_Q5TAQ9_256_FLPNSGDSTLAMCAR (UniProt Q5TAQ9) | -0.0559 | -0.0159
21 | DCP1A_Q9NPI6_39_QHDPYITSIADLTGQVALYTFCPK (UniProt Q9NPI6) | 0.179 | 0.205
22 | DBR1_Q9UK59_9_VAVAGCCHGELDK (UniProt Q9UK59) | -0.029 | 0.0267
23 | CYTH1_Q15438_323_EVEDSKKPNCFELYIPDNK (UniProt Q15438) | -0.213 | -0.14
24 | DCTN1_Q14203_830_MPGTDAPGIPAALAFGPQVSDTLLDCR (UniProt Q14203) | 0.37 | 0.305
25 | CTSC_P53634_321_YAQDFGLVEEACFPYTGTDSPCK (UniProt P53634) | -0.213 | 0.011
26 | DARS2_Q6PI48_152_TAELLNACK (UniProt Q6PI48) | -0.0766 | 0.0676
27 | CWF19L1_Q69YN2_141_MMLCTTSQFK (UniProt Q69YN2) | 0.0593 | 0.0957
28 | DCAF5_Q96JK2_349_FNPHTYMICSSGVEK (UniProt Q96JK2) | 0.128 | -0.125
29 | DCTD_P32321_83_LDTKYPYVCHAELNAIMNK (UniProt P32321) | -0.364 | -0.419
30 | DCAF8_Q5TAQ9_273_VAELSATQCCK (UniProt Q5TAQ9) | -0.107 | -0.162
31 | CTSB_P07858_108_DQGSCGSCWAFGAVEAISDR (UniProt P07858) | 0.0107 | -0.0929
32 | DBNL_Q9UJU6_127_AEEDVEPECIMEK (UniProt Q9UJU6) | 0.0187 | -0.0226
33 | CYB5R1_Q9UHQ9_288_EHLPAPGDDVLVLLCGPPPMVQLACHPNLDK (UniProt Q9UHQ9) | -0.503 | -0.158

Some of the entries so far, as tab-separated lines:
Row	Target	probe-labelled cysteine peptide fold change (10 µM)	probe-labelled cysteine peptide fold change (50 µM)
21	DCP1A_Q9NPI6_39_QHDPYITSIADLTGQVALYTFCPK (UniProt Q9NPI6)	0.179	0.205
22	DBR1_Q9UK59_9_VAVAGCCHGELDK (UniProt Q9UK59)	-0.029	0.0267
23	CYTH1_Q15438_323_EVEDSKKPNCFELYIPDNK (UniProt Q15438)	-0.213	-0.14
24	DCTN1_Q14203_830_MPGTDAPGIPAALAFGPQVSDTLLDCR (UniProt Q14203)	0.37	0.305
25	CTSC_P53634_321_YAQDFGLVEEACFPYTGTDSPCK (UniProt P53634)	-0.213	0.011
26	DARS2_Q6PI48_152_TAELLNACK (UniProt Q6PI48)	-0.0766	0.0676
27	CWF19L1_Q69YN2_141_MMLCTTSQFK (UniProt Q69YN2)	0.0593	0.0957
